# Article PMC4385928
# Amino acid sequences for entries named in this document (tags omitted).
# UniProt Q13153: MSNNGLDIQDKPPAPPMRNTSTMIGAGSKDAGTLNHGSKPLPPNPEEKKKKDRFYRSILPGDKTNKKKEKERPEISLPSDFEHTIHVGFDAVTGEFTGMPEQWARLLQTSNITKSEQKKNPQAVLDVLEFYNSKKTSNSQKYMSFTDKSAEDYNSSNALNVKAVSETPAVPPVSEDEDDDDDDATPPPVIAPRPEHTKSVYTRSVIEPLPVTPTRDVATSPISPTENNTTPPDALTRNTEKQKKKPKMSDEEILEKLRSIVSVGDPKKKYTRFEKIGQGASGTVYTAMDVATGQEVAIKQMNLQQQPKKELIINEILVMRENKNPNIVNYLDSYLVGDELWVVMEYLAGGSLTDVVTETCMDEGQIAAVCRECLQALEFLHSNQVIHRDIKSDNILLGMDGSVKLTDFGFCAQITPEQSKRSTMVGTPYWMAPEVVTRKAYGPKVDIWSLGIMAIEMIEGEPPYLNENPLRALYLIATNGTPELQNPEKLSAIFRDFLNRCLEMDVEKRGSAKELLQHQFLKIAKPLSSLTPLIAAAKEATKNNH
# No constants are given. Whether binding was seen depends on the method and setting. For some assays here: Binding seen in cells or lysates may run through a third protein. Some results given as binding are weak or reduced against the parent protein; the word gives no strength. For some assays here: Tags and fused reporters may be left off the sequences shown.
# T1: GST-RUFY3 (RUN and FYVE domain containing 3) (human) (UniProt Q7L099)
# T1 sequence: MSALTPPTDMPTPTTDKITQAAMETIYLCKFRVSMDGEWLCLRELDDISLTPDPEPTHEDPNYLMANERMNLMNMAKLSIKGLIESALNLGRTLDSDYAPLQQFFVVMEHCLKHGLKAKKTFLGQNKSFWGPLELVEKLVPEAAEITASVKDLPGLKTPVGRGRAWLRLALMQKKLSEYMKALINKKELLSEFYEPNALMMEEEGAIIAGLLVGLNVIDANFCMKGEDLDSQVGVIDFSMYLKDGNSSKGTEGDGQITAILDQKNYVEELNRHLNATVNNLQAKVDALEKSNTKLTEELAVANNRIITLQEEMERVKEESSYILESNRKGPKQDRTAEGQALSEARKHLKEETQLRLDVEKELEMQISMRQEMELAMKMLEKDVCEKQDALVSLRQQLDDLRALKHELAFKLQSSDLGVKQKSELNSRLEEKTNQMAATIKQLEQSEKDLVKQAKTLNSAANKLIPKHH
# T2: endogenous RUFY3 of BGC-823 cells (human (endogenous in BGC-823)) (UniProt Q7L099)
# T2 sequence: T1 sequence
# T3: GFP-RUFY3 (human) (UniProt Q7L099)
# T3 sequence: T1 sequence
# B1: In vitro-translated His-RUFY3 (protein, UniProt Q7L099 1-469)
# chain: T1 sequence
# B2: human RUFY3, yeast two-hybrid prey (protein, UniProt Q7L099 1-469)
# chain: T1 sequence
# Key:
# [1] = biological target: T1, GST-RUFY3 (RUN and FYVE domain containing 3) (human); assay: pull-down; GST-fusion protein on glutathione-conjugated Sepharose beads; 10 ul of in vitro translated His-tagged protein (TNT system); bound proteins visualized by western blot with anti-His antibody; only the target purified
# [2] = biological target: T2, endogenous RUFY3 of BGC-823 cells (human (endogenous in BGC-823)); assay: co-IP; endogenous proteins in cell lysates (COS-7, BGC-823); IP with anti-PAK1 or anti-RUFY3 antibody and protein A-Sepharose 4B; IP lysis buffer 25 mM Tris pH 7.4, 150 mM NaCl, 1% Nonidet P-40, 1 mM EDTA
# [3] = biological target: T3, GFP-RUFY3 (human); assay: co-IP; lysate of HEK293 cells co-transfected with GFP-RUFY3 and myc-PAK1; IP with anti-GFP antibody and protein A-Sepharose 4B; blot with anti-myc and anti-GFP; IP lysis buffer 25 mM Tris pH 7.4, 150 mM NaCl, 1% Nonidet P-40, 1 mM EDTA
# [4] = biological target: GST-PAK1 (UniProt Q13153); assay: pull-down; GST-fusion protein on glutathione-conjugated Sepharose beads; 10 ul of in vitro translated His-tagged protein (TNT system); bound proteins visualized by western blot with anti-His antibody; only the target purified
# [5] = biological target: PAK1, yeast two-hybrid bait (UniProt Q13153); assay: two-hybrid; yeast two-hybrid screen with PAK1 as bait; no further details given
molecule,measurement,setting,value
In vitro-translated His-PAK1 (P21-activated kinase-1) (from UniProt Q13153 1-545) (enzyme),binding,[1],binds
endogenous PAK1 of BGC-823 cells (from UniProt Q13153 1-545) (enzyme),binding,[2],binds
myc-PAK1 (from UniProt Q13153 1-545) (enzyme),binding,[3],binds
B1,binding,[4],binds
B2,binding,[5],binds
